Results on 4 molecules are retold here after paper PMC6663880.

The target in assay [1] is T1, RHBDL4mycFLAG site 7 mutant (Y261F) (human) (UniProt Q8TEB9).
T1 sequence: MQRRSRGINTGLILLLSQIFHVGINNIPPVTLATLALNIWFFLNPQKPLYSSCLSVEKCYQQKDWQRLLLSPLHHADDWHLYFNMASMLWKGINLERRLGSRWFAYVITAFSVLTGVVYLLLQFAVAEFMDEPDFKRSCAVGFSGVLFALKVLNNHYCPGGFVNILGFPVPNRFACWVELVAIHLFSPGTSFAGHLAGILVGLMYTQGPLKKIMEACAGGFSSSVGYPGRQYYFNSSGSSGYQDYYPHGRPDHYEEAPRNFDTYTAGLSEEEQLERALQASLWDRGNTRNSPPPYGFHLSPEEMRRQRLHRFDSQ
As to the kind of experiment: co-IP; HEK293 cells transfected with RHBDL4mycFLAG variants; lysis in 1% Triton, 50 mM Tris pH 7.4, 150 mM NaCl; anti-FLAG M2 beads; additional 100 mM NaCl in the wash buffer; blots with anti-p97/VCP, anti-ubiquitin and anti-Lys63 linkage-specific antibodies for the endogenous partners.

In assay [2] the target is T2, RHBDL4mycFLAG (human) (UniProt Q8TEB9).
T2 sequence: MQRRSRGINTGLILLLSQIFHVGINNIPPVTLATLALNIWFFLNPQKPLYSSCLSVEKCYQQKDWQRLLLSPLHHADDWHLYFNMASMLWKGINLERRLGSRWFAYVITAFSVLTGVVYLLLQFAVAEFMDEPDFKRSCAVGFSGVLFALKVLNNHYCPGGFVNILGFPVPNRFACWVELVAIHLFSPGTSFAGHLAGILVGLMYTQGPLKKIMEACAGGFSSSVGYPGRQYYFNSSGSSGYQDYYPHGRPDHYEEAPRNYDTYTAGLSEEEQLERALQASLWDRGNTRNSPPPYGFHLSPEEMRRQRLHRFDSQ
The assay is described as above.

Assay [3] deals with T2, RHBDL4mycFLAG (human). Nature of the assay: co-IP; HEK293 cells co-transfected with mCherry-PTP1B variants and RHBDL4mycFLAG; lysis in 1% Triton, 50 mM Tris pH 7.4, 150 mM NaCl, 2 mM sodium pervanadate, 1 mM sodium fluoride; anti-FLAG M2 beads; blot with anti-mCherry; in washout experiments 4 mM Na3VO4 in the wash buffer.

No constants are given. Whether binding was seen depends on the method and setting. In cells and extracts the contact can be indirect. Some entries that bind do so weakly or less than the wild type. Sequences can lack the tags named with a protein.

As to “p97/VCP (valosin-containing protein) (from UniProt P55072 1-806)”, the binding entry (in assay [1]; with RHBDL4mycFLAG (human) [2]) was “binds” throughout.

B1: mCherry-PTP1B WT (enzyme, UniProt P18031 1-435)
chain: MEMEKEFEQIDKSGSWAAIYQDIRHEASDFPCRVAKLPKNKNRNRYRDVSPFDHSRIKLHQEDNDYINASLIKMEEAQRSYILTQGPLPNTCGHFWEMVWEQKSRGVVMLNRVMEKGSLKCAQYWPQKEEKEMIFEDTNLKLTLISEDIKSYYTVRQLELENLTTQETREILHFHYTTWPDFGVPESPASFLNFLFKVRESGSLSPEHGPVVVHCSAGIGRSGTFCLADTCLLLMDKRKDPSSVDIKKVLLEMRKFRMGLIQTADQLRFSYLAVIEGAKFIMGDSSVQDQWKELSHEDLEPPPEHIPPPPRPPKRILEPHNGKCREFFPNHQWVKEETQEDKDCPIKEEKGSPLNAAPYGIESMSQDTEVRSRVVGGSLRGAQAASPAKGEPSLPEKDEDHALSYWKPFLVNMCVATVLTAGAYLCYRFLFNSNT
For the molecule B1, in the assay with RHBDL4mycFLAG (human) [3], the binding result is on record as “binds weakly”.

B2: mCherry-PTP1B D181A/Y46F (enzyme, UniProt P18031 1-435)
chain: MEMEKEFEQIDKSGSWAAIYQDIRHEASDFPCRVAKLPKNKNRNRFRDVSPFDHSRIKLHQEDNDYINASLIKMEEAQRSYILTQGPLPNTCGHFWEMVWEQKSRGVVMLNRVMEKGSLKCAQYWPQKEEKEMIFEDTNLKLTLISEDIKSYYTVRQLELENLTTQETREILHFHYTTWPAFGVPESPASFLNFLFKVRESGSLSPEHGPVVVHCSAGIGRSGTFCLADTCLLLMDKRKDPSSVDIKKVLLEMRKFRMGLIQTADQLRFSYLAVIEGAKFIMGDSSVQDQWKELSHEDLEPPPEHIPPPPRPPKRILEPHNGKCREFFPNHQWVKEETQEDKDCPIKEEKGSPLNAAPYGIESMSQDTEVRSRVVGGSLRGAQAASPAKGEPSLPEKDEDHALSYWKPFLVNMCVATVLTAGAYLCYRFLFNSNT
On to B2, for which the binding result in the assay with RHBDL4mycFLAG (human) [3] is given as “binds”.

B3: mCherry-PTP1B D181A (enzyme, UniProt P18031 1-435)
chain: MEMEKEFEQIDKSGSWAAIYQDIRHEASDFPCRVAKLPKNKNRNRYRDVSPFDHSRIKLHQEDNDYINASLIKMEEAQRSYILTQGPLPNTCGHFWEMVWEQKSRGVVMLNRVMEKGSLKCAQYWPQKEEKEMIFEDTNLKLTLISEDIKSYYTVRQLELENLTTQETREILHFHYTTWPAFGVPESPASFLNFLFKVRESGSLSPEHGPVVVHCSAGIGRSGTFCLADTCLLLMDKRKDPSSVDIKKVLLEMRKFRMGLIQTADQLRFSYLAVIEGAKFIMGDSSVQDQWKELSHEDLEPPPEHIPPPPRPPKRILEPHNGKCREFFPNHQWVKEETQEDKDCPIKEEKGSPLNAAPYGIESMSQDTEVRSRVVGGSLRGAQAASPAKGEPSLPEKDEDHALSYWKPFLVNMCVATVLTAGAYLCYRFLFNSNT
B3: in the assay with RHBDL4mycFLAG (human) [3], the binding entry is on record as “binds”.
